Measurements taken from article PMC13462943.
No constants are given. Whether binding was seen depends on the method and setting. In cells and extracts the contact can be indirect. A yes stands for co-enrichment or nearness to the bait. Other partners may have been found.

Molecular target: T1, G9a, endogenous in iPSCs (human (endogenous in iPSCs)), Q96KQ7
T1 chain: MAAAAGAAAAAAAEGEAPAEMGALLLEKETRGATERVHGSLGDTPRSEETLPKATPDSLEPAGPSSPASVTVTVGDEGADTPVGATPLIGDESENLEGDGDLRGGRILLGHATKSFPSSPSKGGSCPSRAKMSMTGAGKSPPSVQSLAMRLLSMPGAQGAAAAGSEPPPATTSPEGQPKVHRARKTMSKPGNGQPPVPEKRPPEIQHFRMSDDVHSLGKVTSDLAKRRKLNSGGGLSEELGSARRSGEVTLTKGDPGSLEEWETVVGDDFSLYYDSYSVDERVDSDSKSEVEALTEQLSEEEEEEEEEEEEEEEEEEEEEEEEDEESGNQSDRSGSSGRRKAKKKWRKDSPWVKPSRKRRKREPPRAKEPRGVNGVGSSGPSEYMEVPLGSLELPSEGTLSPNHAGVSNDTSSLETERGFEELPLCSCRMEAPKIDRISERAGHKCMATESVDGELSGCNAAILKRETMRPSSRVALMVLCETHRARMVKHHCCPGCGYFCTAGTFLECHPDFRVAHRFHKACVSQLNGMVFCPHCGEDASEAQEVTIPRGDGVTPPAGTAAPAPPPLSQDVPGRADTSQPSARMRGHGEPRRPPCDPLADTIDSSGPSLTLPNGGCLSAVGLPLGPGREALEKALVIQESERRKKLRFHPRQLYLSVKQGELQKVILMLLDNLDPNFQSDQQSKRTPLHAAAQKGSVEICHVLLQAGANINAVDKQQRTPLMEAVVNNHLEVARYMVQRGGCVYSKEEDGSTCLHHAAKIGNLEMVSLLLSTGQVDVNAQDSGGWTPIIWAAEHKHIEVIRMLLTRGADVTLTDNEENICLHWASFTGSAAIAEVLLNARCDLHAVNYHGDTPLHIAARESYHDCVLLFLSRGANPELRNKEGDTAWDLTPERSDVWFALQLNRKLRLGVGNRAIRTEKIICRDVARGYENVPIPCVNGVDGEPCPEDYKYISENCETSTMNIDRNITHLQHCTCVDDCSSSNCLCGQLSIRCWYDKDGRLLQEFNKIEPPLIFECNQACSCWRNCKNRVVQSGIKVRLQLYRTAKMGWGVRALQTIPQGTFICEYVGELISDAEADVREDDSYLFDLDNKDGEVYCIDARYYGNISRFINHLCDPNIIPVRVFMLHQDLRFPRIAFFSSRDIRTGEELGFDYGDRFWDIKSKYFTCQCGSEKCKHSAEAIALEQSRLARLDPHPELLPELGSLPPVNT
Test: co-IP + affinity purification with mass spectrometry; rabbit anti-G9a on Dynabeads Protein A; whole cell extracts (100 µg) of control and patients' iPSCs, 45 min at 4 °C; washes with 200 mM NaCl, 1.5 mM MgCl2, 20 mM EDTA; eluate read by western blot (G9a, GLP) and LC-MS/MS; anti-PFAS IgG as negative control
Details: remark: other sources report otherwise

binding: binds
B1: GLP, endogenous in iPSCs, Q9H9B1-1 1-1298 (protein)
chain: MAAADAEAVPARGEPQQDCCVKTELLGEETPMAADEGSAEKQAGEAHMAADGETNGSCENSDASSHANAAKHTQDSARVNPQDGTNTLTRIAENGVSERDSEAAKQNHVTADDFVQTSVIGSNGYILNKPALQAQPLRTTSTLASSLPGHAAKTLPGGAGKGRTPSAFPQTPAAPPATLGEGSADTEDRKLPAPGADVKVHRARKTMPKSVVGLHAASKDPREVREARDHKEPKEEINKNISDFGRQQLLPPFPSLHQSLPQNQCYMATTKSQTACLPFVLAAAVSRKKKRRMGTYSLVPKKKTKVLKQRTVIEMFKSITHSTVGSKGEKDLGASSLHVNGESLEMDSDEDDSEELEEDDGHGAEQAAAFPTEDSRTSKESMSEADRAQKMDGESEEEQESVDTGEEEEGGDESDLSSESSIKKKFLKRKGKTDSPWIKPARKRRRRSRKKPSGALGSESYKSSAGSAEQTAPGDSTGYMEVSLDSLDLRVKGILSSQAEGLANGPDVLETDGLQEVPLCSCRMETPKSREITTLANNQCMATESVDHELGRCTNSVVKYELMRPSNKAPLLVLCEDHRGRMVKHQCCPGCGYFCTAGNFMECQPESSISHRFHKDCASRVNNASYCPHCGEESSKAKEVTIAKADTTSTVTPVPGQEKGSALEGRADTTTGSAAGPPLSEDDKLQGAASHVPEGFDPTGPAGLGRPTPGLSQGPGKETLESALIALDSEKPKKLRFHPKQLYFSARQGELQKVLLMLVDGIDPNFKMEHQNKRSPLHAAAEAGHVDICHMLVQAGANIDTCSEDQRTPLMEAAENNHLEAVKYLIKAGALVDPKDAEGSTCLHLAAKKGHYEVVQYLLSNGQMDVNCQDDGGWTPMIWATEYKHVDLVKLLLSKGSDINIRDNEENICLHWAAFSGCVDIAEILLAAKCDLHAVNIHGDSPLHIAARENRYDCVVLFLSRDSDVTLKNKEGETPLQCASLNSQVWSALQMSKALQDSAPDRPSPVERIVSRDIARGYERIPIPCVNAVDSEPCPSNYKYVSQNCVTSPMNIDRNITHLQYCVCIDDCSSSNCMCGQLSMRCWYDKDGRLLPEFNMAEPPLIFECNHACSCWRNCRNRVVQNGLRARLQLYRTRDMGWGVRSLQDIPPGTFVCEYVGELISDSEADVREEDSYLFDLDNKDGEVYCIDARFYGNVSRFINHHCEPNLVPVRVFMAHQDLRFPRIAFFSTRLIEAGEQLGFDYGERFWDIKGKLFSCRCGSPKCRHSSAALAQRQASAAQEAQEDGLPDTSSAAAADPL
